According to the supplement of paper PMC12595434, “Development of retinoid nuclear receptor pathway antagonists through targeting aldehyde dehydrogenase 1A3” (iScience, 2025):
The other results are listed elsewhere or left out. This is a noisy data set.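 Tm was set to 64 °C where no melting was found, and many curves are irregular.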

Amino acid sequences for entries named in this document (tags omitted). A change or cut given only in a name is not applied to a line headed by its entry.
UniProt P48960: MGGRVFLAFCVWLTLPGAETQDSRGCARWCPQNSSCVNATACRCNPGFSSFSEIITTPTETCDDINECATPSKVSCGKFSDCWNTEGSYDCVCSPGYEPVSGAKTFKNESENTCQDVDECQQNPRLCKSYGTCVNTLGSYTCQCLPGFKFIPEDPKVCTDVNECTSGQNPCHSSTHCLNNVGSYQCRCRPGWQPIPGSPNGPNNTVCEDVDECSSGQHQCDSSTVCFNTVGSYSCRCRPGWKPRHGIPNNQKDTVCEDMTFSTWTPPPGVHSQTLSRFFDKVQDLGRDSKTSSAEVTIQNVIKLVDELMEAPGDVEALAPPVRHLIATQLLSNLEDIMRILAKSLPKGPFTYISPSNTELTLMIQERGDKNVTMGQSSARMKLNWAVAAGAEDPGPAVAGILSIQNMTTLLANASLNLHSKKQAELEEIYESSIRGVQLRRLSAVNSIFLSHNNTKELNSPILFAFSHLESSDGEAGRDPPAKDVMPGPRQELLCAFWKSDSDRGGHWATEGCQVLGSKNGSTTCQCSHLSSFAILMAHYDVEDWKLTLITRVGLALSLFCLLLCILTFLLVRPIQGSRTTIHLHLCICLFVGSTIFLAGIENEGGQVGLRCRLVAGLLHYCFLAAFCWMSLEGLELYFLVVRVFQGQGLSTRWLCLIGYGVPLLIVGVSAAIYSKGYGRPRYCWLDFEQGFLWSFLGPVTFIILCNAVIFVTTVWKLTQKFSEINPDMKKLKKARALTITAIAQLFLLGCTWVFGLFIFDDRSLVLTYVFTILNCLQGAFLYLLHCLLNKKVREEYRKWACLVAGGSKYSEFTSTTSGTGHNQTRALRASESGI
UniProt P43007: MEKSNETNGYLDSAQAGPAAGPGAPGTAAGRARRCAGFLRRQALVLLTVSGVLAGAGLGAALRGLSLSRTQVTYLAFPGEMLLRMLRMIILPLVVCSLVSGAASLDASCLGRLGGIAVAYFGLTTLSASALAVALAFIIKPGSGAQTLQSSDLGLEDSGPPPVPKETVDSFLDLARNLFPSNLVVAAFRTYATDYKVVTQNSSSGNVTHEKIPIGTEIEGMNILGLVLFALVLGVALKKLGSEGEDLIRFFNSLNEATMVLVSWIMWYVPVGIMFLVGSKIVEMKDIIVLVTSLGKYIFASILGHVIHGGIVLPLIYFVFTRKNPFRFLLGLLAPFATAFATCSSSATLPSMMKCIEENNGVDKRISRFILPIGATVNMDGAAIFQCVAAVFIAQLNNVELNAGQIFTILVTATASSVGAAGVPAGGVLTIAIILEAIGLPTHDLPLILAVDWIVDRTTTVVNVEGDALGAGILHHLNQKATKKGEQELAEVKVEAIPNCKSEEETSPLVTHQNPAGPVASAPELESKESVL
UniProt P42765: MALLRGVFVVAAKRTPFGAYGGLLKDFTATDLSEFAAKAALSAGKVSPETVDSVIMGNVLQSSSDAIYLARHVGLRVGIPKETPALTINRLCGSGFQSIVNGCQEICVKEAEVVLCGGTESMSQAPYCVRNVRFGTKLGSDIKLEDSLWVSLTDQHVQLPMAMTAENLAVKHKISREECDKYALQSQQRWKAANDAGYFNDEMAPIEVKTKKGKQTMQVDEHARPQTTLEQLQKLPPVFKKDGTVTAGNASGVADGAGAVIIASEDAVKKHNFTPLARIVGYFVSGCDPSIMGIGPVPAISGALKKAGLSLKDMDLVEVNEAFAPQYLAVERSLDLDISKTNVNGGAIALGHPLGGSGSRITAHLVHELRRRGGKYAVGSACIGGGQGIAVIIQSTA
UniProt P48047: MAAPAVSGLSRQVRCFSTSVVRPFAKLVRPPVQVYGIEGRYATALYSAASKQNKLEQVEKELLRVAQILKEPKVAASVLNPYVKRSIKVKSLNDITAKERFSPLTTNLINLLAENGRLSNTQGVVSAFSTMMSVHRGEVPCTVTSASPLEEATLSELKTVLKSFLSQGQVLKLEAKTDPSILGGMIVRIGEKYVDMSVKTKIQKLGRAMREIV
UniProt P49005: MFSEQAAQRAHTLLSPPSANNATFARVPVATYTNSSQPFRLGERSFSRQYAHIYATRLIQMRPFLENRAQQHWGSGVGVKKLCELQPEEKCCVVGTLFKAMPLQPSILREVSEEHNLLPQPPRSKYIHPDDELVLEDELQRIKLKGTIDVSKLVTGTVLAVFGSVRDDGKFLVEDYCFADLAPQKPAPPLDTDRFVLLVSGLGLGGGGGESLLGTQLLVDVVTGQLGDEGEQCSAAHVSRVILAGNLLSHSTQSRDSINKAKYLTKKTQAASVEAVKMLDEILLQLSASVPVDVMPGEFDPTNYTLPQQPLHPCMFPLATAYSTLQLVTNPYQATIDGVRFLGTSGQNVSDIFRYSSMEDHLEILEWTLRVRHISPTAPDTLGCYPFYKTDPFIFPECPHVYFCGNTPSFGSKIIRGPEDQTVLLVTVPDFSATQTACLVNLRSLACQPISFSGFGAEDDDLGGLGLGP
UniProt P42224: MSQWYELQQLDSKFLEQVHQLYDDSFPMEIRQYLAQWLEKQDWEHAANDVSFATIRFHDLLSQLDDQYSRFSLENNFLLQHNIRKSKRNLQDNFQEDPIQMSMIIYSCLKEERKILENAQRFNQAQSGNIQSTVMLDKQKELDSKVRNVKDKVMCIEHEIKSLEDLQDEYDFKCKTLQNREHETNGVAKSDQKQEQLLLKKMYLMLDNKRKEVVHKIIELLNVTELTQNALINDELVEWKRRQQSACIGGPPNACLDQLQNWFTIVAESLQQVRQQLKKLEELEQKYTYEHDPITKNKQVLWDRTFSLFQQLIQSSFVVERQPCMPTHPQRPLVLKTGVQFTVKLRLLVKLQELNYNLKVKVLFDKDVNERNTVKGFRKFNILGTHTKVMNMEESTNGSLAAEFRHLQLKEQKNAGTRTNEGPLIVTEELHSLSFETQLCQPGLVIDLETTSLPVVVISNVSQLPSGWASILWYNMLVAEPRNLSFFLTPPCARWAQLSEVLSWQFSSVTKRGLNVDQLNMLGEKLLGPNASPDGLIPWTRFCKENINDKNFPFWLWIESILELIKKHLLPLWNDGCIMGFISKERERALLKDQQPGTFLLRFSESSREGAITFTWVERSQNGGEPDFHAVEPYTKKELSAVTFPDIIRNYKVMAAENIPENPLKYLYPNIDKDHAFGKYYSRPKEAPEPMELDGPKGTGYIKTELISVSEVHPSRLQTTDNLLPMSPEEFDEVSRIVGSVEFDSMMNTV
UniProt P51153: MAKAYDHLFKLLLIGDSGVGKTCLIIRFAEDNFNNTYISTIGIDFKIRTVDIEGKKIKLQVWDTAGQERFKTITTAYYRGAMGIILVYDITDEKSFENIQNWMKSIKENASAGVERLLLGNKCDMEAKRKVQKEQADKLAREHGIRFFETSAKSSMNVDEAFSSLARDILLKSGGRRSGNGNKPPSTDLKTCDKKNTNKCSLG
UniProt P40763, whole entry: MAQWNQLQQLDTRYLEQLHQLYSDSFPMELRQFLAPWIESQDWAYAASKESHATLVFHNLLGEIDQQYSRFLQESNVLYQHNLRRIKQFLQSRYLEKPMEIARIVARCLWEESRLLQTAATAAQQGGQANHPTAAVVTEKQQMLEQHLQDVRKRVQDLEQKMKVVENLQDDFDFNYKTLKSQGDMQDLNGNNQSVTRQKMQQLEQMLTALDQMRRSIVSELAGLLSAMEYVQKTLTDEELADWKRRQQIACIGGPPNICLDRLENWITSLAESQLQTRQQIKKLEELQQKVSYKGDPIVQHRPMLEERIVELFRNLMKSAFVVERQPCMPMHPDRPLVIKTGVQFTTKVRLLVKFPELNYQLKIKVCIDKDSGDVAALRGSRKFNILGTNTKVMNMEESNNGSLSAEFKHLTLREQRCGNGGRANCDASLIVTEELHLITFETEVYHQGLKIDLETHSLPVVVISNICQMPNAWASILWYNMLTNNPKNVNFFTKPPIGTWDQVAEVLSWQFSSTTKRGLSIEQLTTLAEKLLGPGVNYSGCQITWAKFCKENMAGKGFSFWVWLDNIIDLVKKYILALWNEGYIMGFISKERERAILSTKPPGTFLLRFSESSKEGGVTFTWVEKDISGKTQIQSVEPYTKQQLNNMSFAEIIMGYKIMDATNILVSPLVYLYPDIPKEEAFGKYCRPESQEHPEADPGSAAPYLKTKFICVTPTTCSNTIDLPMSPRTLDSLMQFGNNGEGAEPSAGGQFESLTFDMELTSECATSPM
UniProt P43490: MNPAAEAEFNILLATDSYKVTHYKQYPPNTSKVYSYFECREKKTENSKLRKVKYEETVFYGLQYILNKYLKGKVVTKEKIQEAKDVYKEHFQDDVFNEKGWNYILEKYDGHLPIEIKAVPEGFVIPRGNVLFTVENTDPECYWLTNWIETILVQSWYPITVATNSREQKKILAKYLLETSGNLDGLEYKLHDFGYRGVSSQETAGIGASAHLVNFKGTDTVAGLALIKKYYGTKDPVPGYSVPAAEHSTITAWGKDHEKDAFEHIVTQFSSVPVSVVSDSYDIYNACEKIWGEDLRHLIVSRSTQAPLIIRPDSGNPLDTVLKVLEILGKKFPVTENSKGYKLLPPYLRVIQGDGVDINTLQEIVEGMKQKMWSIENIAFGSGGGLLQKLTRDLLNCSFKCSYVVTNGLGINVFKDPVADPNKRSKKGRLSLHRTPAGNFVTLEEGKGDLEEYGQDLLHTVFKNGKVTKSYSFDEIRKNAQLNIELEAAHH
UniProt P37837: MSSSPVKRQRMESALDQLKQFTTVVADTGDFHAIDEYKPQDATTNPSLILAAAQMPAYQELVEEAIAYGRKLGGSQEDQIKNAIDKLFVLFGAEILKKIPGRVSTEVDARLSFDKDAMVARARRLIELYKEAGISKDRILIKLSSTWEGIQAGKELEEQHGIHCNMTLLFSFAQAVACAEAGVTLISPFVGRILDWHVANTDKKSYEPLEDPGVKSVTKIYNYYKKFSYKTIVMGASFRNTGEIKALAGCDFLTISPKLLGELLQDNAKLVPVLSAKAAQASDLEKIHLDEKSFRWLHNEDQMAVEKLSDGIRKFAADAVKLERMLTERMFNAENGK
UniProt P40926: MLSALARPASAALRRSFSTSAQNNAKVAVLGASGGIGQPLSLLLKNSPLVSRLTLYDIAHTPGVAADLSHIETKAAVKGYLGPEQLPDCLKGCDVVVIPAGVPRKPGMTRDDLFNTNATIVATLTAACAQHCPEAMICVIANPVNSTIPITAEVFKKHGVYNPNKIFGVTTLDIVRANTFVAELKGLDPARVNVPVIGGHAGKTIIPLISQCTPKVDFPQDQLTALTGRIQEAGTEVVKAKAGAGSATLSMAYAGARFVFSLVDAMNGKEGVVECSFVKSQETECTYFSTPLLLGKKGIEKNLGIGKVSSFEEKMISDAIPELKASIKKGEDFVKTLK
UniProt P41252: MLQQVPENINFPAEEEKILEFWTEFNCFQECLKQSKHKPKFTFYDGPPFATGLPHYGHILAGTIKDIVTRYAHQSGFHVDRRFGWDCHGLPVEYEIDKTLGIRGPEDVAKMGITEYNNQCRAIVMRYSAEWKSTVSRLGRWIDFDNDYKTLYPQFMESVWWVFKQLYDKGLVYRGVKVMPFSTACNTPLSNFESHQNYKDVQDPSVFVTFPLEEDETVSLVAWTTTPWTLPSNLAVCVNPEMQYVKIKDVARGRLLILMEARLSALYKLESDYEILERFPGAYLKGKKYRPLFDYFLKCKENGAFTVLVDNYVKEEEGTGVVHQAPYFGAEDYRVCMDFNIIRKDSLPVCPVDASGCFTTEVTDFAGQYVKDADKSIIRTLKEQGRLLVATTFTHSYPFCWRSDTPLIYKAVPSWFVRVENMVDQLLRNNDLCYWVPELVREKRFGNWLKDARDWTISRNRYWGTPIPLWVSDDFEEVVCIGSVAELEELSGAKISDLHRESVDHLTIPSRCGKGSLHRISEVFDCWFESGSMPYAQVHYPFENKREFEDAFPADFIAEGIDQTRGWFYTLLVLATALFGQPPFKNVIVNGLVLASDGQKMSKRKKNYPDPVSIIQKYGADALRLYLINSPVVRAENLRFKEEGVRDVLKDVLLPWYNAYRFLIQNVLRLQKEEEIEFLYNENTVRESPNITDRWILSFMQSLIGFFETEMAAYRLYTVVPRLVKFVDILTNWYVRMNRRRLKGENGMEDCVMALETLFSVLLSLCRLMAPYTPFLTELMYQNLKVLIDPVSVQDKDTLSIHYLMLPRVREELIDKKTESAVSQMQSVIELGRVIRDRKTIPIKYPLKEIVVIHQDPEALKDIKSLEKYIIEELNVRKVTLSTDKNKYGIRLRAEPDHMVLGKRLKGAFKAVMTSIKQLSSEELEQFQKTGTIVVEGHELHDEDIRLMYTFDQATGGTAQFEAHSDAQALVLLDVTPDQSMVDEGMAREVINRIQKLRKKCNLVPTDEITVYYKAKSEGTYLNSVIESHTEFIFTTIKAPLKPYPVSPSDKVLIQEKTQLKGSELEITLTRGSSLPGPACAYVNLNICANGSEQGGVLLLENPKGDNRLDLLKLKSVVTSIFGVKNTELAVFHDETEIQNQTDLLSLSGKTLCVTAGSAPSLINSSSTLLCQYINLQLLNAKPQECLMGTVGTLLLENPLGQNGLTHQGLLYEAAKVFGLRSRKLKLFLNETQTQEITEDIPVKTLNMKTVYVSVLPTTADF

Compound: CCc1cnccc1C(=O)Nc1cc2c(cc1F)NC(=O)CC2
Assay: melting temperature shift (DMSO Tm minus MBE1-treated Tm) in cellular thermal proteome profiling; higher = less thermal stabilization by MBE1 (negative = stabilized by MBE1)
Conditions: A375

Target	melting temperature shift (MBE1 concentration: 100 nM)	melting temperature shift (MBE1 concentration: 1 uM)
PSMC4 (UniProt P43686)	-1.33 °C	1.09 °C
CD97 (UniProt P48960)		-1.86 °C
YAP1 (UniProt P46937)		-5.59 °C
UniProt P43005		-2.29 °C
SLC1A4 (UniProt P43007)	-0.914 °C	-2.92 °C
SLC19A1 (UniProt P41440)	-0.142 °C	
UniProt P42568	1.62 °C	
ACAA2 (UniProt P42765)		-2.17 °C
SMARCA2 (UniProt P51531)	-0.589 °C	-0.596 °C
UniProt P48380		-0.837 °C
RPL27A (UniProt P46776)	-0.556 °C	-1.36 °C
SSR1 (UniProt P43307)	-0.827 °C	-1.31 °C
EIF4A3 (UniProt P38919)	-0.315 °C	0.462 °C
GPD2 (UniProt P43304)	-1.24 °C	-1.72 °C
UQCRFS1 (UniProt P47985)	-1.53 °C	-1.17 °C
UniProt P42898	0.293 °C	0.299 °C
TPMT (UniProt P51580)	-0.731 °C	0.476 °C
NOTCH1 (UniProt P46531)	4.15 °C	1.8 °C
IGHMBP2 (UniProt P38935)	-0.75 °C	-0.611 °C
NEDD4 (UniProt P46934)	0.562 °C	-0.275 °C
NCAPD3 (UniProt P42695)	-0.769 °C	-0.525 °C
ATP5O (UniProt P48047)	-0.836 °C	-1.73 °C
RPL3 (UniProt P39023)	-0.751 °C	0.568 °C
POLD2 (UniProt P49005)	0.458 °C	0.379 °C

Target	melting temperature shift (MBE1 concentration: 100 nM)	melting temperature shift (MBE1 concentration: 1 uM)
TMED10 (UniProt P49755)	-0.104 °C	-0.22 °C
CASP2 (UniProt P42575)	3.13 °C	-0.611 °C
UniProt P42330	0.287 °C	-0.0611 °C
LRPPRC (UniProt P42704)	-0.218 °C	-0.122 °C
CLCN3 (UniProt P51790)	-1.48 °C	-2.32 °C
ALDH7A1 (UniProt P49419)	-0.255 °C	0.516 °C
UniProt P40425	-0.692 °C	-0.39 °C
GALK1 (UniProt P51570)	-0.443 °C	0.221 °C
RANGAP1 (UniProt P46060)	0.165 °C	-0.316 °C
LMAN1 (UniProt P49257)	-0.677 °C	0.805 °C
STAT1 (UniProt P42224)	-0.359 °C	-0.256 °C
CRK (UniProt P46108)	0.25 °C	-0.397 °C
INPP1 (UniProt P49441)	-0.379 °C	0.963 °C
RPL35 (UniProt P42766)	-0.574 °C	-0.236 °C
PSMD7 (UniProt P51665)	0.382 °C	0.419 °C
DHPS (UniProt P49366)	-1.12 °C	-1 °C
CCT6A (UniProt P40227)	-0.984 °C	-0.96 °C
IL6ST (UniProt P40189)	-4.6 °C	0.342 °C
MSH2 (UniProt P43246)	0.275 °C	-0.0672 °C
UniProt P50479	-1.13 °C	-0.0916 °C
NSF (UniProt P46459)	0.214 °C	-0.299 °C
RBM25 (UniProt P49756)	-1.12 °C	-0.585 °C
IDH2 (UniProt P48735)	0.657 °C	0.44 °C
PSMD8 (UniProt P48556)	-0.917 °C	0.543 °C

Target	melting temperature shift (MBE1 concentration: 100 nM)	melting temperature shift (MBE1 concentration: 1 uM)
VPS41 (UniProt P49754)	-0.351 °C	-0.442 °C
CASP3 (UniProt P42574)	-4.39 °C	1.72 °C
PXN (UniProt P49023)	-1.74 °C	-3.07 °C
MLH1 (UniProt P40692)	-0.506 °C	-0.115 °C
SEPHS1 (UniProt P49903)	-3.55 °C	0.065 °C
RPL13A (UniProt P40429)	-0.855 °C	-1.58 °C
SMARCA4 (UniProt P51532)	-0.243 °C	-0.275 °C
UniProt P42167	-0.657 °C	-1.75 °C
BRCC3 (UniProt P46736)	-3.02 °C	0.738 °C
RAB13 (UniProt P51153)	-1.07 °C	-0.188 °C
RFX5 (UniProt P48382)	0.122 °C	0.611 °C
NUP153 (UniProt P49790)	-0.639 °C	0.165 °C
UniProt P39880	0.806 °C	0.244 °C
RPS10 (UniProt P46783)	-0.0305 °C	0.647 °C
LIG4 (UniProt P49917)	-0.431 °C	0.503 °C
STAT3 (UniProt P40763)	-1.13 °C	-0.972 °C
PPT1 (UniProt P50897)	-2.08 °C	-2.21 °C
RPS5 (UniProt P46782)	-1.02 °C	2.91 °C
ZFP36L2 (UniProt P47974)	-0.847 °C	-1.73 °C
UniProt P48454	-0.873 °C	1.98 °C
NUP62 (UniProt P37198)	1.32 °C	0.946 °C
NT5C2 (UniProt P49902)	-0.861 °C	-0.415 °C
NAMPT (UniProt P43490)	-0.641 °C	-0.104 °C
TALDO1 (UniProt P37837)	-0.376 °C	0.0402 °C

Target	melting temperature shift (MBE1 concentration: 100 nM)	melting temperature shift (MBE1 concentration: 1 uM)
LIPA (UniProt P38571)	-0.177 °C	-1.8 °C
GSS (UniProt P48637)	-0.993 °C	-0.766 °C
UniProt P45985	0.763 °C	0.348 °C
MDH2 (UniProt P40926)	-0.889 °C	-0.354 °C
NUMB (UniProt P49757)	0.495 °C	0.611 °C
UniProt P48443	-0.0961 °C	-0.455 °C
UniProt P49918	-0.409 °C	-0.355 °C
HPCAL1 (UniProt P37235)	-2.06 °C	-1.63 °C
GARS (UniProt P41250)	-1.47 °C	-1.3 °C
USP5 (UniProt P45974)	-0.671 °C	0.00611 °C
SERPINB8 (UniProt P50452)	-0.684 °C	0.838 °C
PEX5 (UniProt P50542)	-0.952 °C	-0.5 °C
HSD17B4 (UniProt P51659)	-0.771 °C	0.496 °C
DDOST (UniProt P39656)	-0.758 °C	0.228 °C
IDH3G (UniProt P51553)	-1.16 °C	1.5 °C
GDI2 (UniProt P50395)	-0.728 °C	0.342 °C
UniProt P42356	0.69 °C	0.666 °C
CSK (UniProt P41240)	0.629 °C	0.293 °C
RBM34 (UniProt P42696)	0.269 °C	-0.596 °C
IARS (UniProt P41252)	-0.372 °C	-0.343 °C
UniProt P45983	-1.81 °C	-0.997 °C
UniProt P49356	1.4 °C	0.794 °C

Two records picked at random from those above, as already listed:
Target	melting temperature shift (MBE1 concentration: 100 nM)	melting temperature shift (MBE1 concentration: 1 uM)
GARS (UniProt P41250)	-1.47 °C	-1.3 °C
SERPINB8 (UniProt P50452)	-0.684 °C	0.838 °C
